Experimental data from ChEMBL document CHEMBL3797118, “New Colchicine-Derived Triazoles and Their Influence on Cytotoxicity and Microtubule Morphology” (ACS Med Chem Lett, 2016).

Tested on: Jurkat
Experiment: Cytotoxicity against human Jurkat cells after 48 hrs by Celltiter-Glo luminescent cell viability assay
Format: functional, cell-based

Question: With COc1cc2c(c(OC)c1OC)-c1ccc(OC)c(=O)cc1[C@@H](NC(C)=O)CC2 [COLCHICINE] as the molecule, how does the IC50 read?
Answer: Its IC50 is 0.0135 µM.
